Source: patent publication US20050196797A1

Chains of the proteins cited; added tags and fusions are not shown.
UniProt Q96Q15: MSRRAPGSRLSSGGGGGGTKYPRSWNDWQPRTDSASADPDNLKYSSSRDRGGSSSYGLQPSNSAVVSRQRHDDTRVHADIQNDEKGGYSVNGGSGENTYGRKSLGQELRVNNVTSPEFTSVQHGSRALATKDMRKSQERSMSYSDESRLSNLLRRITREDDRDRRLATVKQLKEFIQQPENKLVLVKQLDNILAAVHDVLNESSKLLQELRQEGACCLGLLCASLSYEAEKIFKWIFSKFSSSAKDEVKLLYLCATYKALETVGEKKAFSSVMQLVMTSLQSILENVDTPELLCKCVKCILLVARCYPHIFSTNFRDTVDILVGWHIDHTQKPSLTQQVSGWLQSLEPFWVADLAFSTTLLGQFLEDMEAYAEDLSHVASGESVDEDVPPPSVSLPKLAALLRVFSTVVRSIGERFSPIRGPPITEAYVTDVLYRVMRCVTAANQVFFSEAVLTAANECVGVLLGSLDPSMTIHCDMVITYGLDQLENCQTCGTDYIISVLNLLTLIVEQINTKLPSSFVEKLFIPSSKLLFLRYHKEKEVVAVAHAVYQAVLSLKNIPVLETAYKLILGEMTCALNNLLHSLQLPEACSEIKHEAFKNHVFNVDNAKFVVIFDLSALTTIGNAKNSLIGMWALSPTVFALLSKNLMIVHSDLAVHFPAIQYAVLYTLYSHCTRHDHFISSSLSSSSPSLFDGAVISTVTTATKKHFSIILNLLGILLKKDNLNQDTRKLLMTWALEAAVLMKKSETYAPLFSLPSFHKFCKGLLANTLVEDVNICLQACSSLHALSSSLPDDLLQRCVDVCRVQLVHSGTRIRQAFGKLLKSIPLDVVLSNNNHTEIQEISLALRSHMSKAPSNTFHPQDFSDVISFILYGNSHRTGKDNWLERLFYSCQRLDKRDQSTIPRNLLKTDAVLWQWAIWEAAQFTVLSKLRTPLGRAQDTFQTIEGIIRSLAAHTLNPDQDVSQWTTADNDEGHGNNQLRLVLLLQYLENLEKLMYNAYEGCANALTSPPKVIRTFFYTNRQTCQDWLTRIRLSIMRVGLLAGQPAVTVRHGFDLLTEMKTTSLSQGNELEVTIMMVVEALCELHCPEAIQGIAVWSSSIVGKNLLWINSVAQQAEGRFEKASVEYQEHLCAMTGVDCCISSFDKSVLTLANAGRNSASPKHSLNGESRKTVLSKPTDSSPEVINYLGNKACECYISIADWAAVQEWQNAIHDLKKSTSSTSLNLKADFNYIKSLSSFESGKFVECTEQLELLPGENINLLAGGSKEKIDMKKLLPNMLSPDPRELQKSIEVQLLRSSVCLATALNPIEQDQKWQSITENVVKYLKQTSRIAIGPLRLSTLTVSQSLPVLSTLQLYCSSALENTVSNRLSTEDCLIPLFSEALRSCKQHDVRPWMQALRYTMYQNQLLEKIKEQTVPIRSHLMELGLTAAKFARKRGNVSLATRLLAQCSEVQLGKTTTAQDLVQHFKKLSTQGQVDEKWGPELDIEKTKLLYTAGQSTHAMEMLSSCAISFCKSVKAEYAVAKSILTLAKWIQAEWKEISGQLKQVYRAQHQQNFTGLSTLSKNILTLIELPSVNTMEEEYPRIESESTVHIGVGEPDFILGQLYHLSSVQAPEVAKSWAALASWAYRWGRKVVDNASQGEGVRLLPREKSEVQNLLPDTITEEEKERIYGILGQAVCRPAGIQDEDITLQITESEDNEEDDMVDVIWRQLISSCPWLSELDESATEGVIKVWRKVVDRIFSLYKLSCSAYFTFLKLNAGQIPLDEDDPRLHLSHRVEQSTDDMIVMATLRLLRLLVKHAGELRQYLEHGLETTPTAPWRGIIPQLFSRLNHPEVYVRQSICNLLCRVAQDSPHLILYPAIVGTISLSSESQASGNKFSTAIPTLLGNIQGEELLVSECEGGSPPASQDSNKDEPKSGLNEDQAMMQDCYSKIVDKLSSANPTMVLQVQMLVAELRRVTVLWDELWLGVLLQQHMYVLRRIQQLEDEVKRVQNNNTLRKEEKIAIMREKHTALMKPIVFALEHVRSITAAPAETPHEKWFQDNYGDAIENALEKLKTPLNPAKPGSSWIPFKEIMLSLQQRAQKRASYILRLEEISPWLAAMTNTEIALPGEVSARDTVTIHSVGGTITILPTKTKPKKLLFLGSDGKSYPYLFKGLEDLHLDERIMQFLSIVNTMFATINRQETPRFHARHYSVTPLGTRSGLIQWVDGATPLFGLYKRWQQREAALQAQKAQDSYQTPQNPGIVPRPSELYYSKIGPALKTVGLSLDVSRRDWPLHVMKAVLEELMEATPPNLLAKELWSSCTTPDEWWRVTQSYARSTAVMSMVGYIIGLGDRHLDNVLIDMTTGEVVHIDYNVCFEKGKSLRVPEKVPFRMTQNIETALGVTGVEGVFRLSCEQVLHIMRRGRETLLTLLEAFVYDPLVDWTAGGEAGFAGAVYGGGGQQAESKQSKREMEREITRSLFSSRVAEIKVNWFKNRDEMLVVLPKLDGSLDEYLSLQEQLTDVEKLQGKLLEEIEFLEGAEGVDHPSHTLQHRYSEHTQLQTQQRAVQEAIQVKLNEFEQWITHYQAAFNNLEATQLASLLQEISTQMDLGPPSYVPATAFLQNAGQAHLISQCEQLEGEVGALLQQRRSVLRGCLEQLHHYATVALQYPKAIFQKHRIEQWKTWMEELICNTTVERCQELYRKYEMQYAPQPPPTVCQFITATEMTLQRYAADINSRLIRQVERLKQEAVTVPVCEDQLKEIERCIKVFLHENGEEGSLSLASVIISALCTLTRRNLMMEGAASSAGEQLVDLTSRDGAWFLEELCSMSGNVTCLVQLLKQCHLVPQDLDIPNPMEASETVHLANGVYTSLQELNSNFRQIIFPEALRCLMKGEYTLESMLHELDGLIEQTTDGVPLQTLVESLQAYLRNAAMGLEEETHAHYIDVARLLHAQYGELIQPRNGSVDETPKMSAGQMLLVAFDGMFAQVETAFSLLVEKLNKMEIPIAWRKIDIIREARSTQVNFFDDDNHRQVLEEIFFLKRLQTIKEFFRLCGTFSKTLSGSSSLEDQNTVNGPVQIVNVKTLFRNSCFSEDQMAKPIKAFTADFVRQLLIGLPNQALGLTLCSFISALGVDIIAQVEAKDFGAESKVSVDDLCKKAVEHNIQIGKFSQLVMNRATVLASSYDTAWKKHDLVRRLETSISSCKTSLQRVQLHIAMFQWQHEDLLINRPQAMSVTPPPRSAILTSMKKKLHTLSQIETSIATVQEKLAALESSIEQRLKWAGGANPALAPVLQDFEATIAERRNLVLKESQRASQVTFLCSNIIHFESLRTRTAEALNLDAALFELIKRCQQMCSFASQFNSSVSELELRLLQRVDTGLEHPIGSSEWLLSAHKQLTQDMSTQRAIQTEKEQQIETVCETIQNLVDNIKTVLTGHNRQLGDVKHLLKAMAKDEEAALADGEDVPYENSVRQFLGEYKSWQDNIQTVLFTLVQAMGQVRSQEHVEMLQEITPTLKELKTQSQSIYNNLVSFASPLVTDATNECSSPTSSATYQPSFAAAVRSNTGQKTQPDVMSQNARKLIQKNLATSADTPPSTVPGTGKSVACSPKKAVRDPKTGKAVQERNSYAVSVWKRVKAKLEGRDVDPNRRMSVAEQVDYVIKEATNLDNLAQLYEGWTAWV

Biological target: human SMG-1 (hSMG-1) (human) (UniProt Q96Q15)
Assay: mass spectrometry (MALDI-TOF/MS of Lys-C fragments) of the 130 kDa band co-immunoprecipitated with antibody N

binding: binds
B1: SMGBP1 (SMG Binding Protein 1) (protein)
chain: MAGPVSLRDLLMGASAWMGSESPGGSPTEGGGSAAGGPEPPWREDEICVVGIFGKTALRLNSEKFSLVNTVCDRQVFPLFRHQDPGDPGPGIRTEAGAVGEAGGAEDPGAAAGGSVRGSGAVAEGNRTEAGSQDYSLLQAYYSQESKVLYLLLTSICDNSQLLRACRALQSGEAGGGLSLPHAEAHEFWKHQEKLQCLSLLYLFSVCHILLLVHPTCSFDITYDRVFRALDGLRQKVLPLLKTAIKDCPVGKDWKLNCRPCPPRLLFLFQLNGALKVVPPRNQDPAHPDKPKKHSPKRRLQHALEDQIYRIFRKSRVLTNQSINCLFTVPANQAFVYIVPGSQEEDPVGMLLDQLRSHCTVKDPESLLVPAPLSGPRRYQVMRQHSRQQLSFHIDSSSSSSSGQLVDFTLWEFLWQHVELVLSKKGFDDSVGRNPQPSHFELPTYQKWISAASKLYEVAIDGKEEDLGSPTGELTSKILSSIKVLEGFLDIDTKFSENRCQKALPMAHSAYQSNLPHNYTMTVHKNQLAQALRVYSQHARGPAFHKYAMQLHEDCYKFWSNGHQLCEERSLTDQHCVHKFHSLPKSGEKPEADRNPPVLYHNSRARSTGACNCGRKQAPRDDPFDIKAANYDFYQLLEEKCCGKLDHINFPVFEPSTPDPAPAKNESSPAPPDSDADKLKEKEPQTQGESTSLSLALSLGQSTDSLGTYPADPQAGGDNPEVHGQVEVKTEKRPNFVDRQASTVEYLPGMLHSNCPKGLLPKFSSWSLVKLGPAKSYNFHTGLDQQGFIPGTNYLMPWDIVIRTRAEDEGDLDTNSWPAPNKAIPGKRSAVVMGRGRRRDDIARAFVGFEYEDSRGRRFMCSGPDKVMKVMGSGPKESALKALNSDMPLYILSSSQGRGLKPHYAQLMRLFVVVPDAPLQIILMPQVQPGPPPCPVFYPEKQEITLPPDGLWVLRFPYAYVTERGPCFPPKENVQLMSYKVLRGVLKAVTQ

Results are given in words; binding and its absence hold for the method and conditions named. Binding seen in cells or lysates may run through a third protein. These calls come from enrichment with a bait or labelling near it, and not all partners need be listed.
